These are yes or no findings as the source states them, for the method shown. In cells and extracts the contact can be indirect. Some entries that bind do so weakly or less than the wild type. For some assays here: Where a sequence is shown, tags or fusion partners need not be part of it.

Amino acid sequences for entries named in this document (tags omitted). A change or cut given only in a name is not applied to a line headed by its entry.
UniProt Q2NKJ3: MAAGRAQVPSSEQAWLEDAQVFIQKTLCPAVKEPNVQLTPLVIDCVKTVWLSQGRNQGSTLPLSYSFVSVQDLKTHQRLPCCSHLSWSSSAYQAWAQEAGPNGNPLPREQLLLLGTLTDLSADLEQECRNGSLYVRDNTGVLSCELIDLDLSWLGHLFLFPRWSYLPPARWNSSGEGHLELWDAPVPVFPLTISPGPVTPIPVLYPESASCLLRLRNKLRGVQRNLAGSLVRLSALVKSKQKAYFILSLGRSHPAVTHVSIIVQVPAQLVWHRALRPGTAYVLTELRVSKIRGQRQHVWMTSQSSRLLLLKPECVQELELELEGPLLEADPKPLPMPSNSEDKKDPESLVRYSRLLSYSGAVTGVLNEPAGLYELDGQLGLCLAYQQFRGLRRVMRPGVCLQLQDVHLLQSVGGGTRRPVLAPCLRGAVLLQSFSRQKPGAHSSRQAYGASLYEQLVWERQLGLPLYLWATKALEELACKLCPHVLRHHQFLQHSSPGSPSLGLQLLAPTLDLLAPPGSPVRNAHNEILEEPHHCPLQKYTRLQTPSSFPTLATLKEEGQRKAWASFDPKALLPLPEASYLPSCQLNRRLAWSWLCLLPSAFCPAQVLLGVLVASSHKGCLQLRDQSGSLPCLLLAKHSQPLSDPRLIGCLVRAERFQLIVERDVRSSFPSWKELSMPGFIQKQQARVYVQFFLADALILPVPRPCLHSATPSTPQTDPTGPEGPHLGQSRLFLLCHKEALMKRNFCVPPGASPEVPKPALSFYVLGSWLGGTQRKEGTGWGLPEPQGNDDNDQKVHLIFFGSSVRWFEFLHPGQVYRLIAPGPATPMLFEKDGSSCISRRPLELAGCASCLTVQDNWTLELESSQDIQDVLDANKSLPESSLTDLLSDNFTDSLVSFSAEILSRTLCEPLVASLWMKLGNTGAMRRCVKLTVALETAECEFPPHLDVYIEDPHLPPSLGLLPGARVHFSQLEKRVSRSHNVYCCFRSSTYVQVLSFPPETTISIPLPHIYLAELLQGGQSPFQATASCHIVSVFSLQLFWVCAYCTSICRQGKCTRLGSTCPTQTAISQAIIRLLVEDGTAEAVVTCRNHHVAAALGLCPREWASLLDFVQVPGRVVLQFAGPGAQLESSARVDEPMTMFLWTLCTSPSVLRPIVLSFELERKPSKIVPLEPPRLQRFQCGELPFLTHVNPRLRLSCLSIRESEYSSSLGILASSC
UniProt Q86WV5: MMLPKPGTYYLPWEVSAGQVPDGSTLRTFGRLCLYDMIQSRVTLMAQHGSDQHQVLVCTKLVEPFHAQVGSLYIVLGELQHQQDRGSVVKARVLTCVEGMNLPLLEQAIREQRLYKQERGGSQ
UniProt Q9UQE7: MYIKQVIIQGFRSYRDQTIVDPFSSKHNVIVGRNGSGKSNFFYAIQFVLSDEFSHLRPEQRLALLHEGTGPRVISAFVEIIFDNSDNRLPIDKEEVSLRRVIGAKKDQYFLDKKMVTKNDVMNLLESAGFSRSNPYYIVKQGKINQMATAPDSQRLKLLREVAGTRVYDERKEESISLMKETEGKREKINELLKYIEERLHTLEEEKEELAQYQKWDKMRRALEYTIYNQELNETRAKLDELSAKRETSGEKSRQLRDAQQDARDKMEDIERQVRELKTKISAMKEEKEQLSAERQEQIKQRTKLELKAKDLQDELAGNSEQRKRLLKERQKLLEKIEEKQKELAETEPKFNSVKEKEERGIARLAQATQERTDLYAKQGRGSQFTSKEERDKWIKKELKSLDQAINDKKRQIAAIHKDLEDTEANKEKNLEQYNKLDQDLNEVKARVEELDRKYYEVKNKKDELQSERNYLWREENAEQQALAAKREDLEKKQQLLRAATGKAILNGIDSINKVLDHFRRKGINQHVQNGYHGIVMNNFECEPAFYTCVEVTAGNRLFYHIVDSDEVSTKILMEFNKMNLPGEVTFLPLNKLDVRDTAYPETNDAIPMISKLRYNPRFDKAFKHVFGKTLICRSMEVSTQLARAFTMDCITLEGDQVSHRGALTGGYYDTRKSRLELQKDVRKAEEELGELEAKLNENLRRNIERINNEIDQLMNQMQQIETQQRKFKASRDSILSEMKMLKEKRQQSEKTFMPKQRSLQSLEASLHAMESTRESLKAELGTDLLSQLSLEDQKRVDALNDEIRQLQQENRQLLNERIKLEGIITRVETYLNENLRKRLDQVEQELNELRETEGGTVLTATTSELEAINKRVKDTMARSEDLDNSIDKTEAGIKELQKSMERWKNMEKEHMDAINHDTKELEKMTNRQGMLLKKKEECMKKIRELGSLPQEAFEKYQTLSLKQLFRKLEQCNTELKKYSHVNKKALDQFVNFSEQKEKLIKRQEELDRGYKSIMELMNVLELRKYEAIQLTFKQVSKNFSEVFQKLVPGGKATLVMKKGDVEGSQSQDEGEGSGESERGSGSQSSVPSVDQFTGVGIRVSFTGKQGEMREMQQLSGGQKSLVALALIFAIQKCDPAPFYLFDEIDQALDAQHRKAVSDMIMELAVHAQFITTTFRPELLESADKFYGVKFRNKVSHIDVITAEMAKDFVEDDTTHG

The target of experiment [1] is CTC1-STN1-TEN1 (CST) complex, epitope-tagged, overexpressed (human) (UniProt Q2NKJ3+Q9H668+Q86WV5). The experiment in a line: co-IP; IP of Flag-tagged proteins from nuclease-treated lysates of HEK293T cells expressing Flag-CTC1, Flag-STN1 or the full CST complex; blots for endogenous SMC3 and SMC1A.
Experiment [2] concerns the target T1, Flag-tagged STN1, expressed alone (human) (UniProt Q9H668).
T1 sequence: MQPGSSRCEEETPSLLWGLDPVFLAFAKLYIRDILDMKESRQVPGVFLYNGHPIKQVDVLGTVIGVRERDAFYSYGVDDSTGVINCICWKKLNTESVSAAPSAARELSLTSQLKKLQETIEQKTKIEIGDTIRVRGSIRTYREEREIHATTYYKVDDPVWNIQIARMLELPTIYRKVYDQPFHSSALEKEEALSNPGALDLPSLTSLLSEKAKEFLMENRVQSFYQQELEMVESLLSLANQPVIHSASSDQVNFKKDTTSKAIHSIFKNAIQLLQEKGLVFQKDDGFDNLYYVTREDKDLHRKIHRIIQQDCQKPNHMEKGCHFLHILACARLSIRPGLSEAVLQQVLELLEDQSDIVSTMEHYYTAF
Described as above.

With “SMC3, endogenous (HEK293T) (from UniProt Q9UQE7 1-1217)”, the binding entry in experiment [1] and in experiment [2] was “binds” in each case.
